Data as given in PubChem BioAssay AID1259308 (NCATS, 2017).
This is a random part of about 59,000 reagents tested. Of all reagents, about 1,510 (2.6%) got an active call. 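Calls use total luciferase alone and ignore viability, so some active siRNAs may act by altering cell number.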 The numbers tell different reagents against one gene apart. Not all columns of the deposit are shown.

- Test: 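Candidate targets for better recombinant protein yield in mammalian cells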 (primary screen)
- Cell system: human HEK293 embryonic kidney cells stably expressing firefly luciferase (HEK-CMV-Luc2-Hygro)
- Reagent: single siRNA against human genes, 0.8 pmol siRNA per well
- Duration: 72 h
- Detection: 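Luciferase light (ONE-Glo) measured on one replicate plate set and viability (CellTiter-Glo) on the other, scaled to a negative control siRNA, with robust z-scores and luciferase per cell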
- Scale: total luciferase, z-score and total luciferase, % of control: higher = more reporter protein produced; luciferase per cell, z-score: higher = more reporter output per viable cell
- Rule for the call: 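Active when the median/MAD z-score for overall luciferase is greater than 3; a gene was taken forward for validation with new siRNAs if at least two of its three siRNAs passed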
- Meaning of the calls: active = raised luciferase; inactive = no rise

no.	target gene	reagent no.	total luciferase, z-score	total luciferase, % of control	luciferase per cell, z-score	call
1	ZNF573	1	1.89	120	2.64	inactive
2	ZNF573	2	-0.481	72.3	-0.996	inactive
3	ZNF573	3	-0.139	79.1	0.198	inactive
4	TRAF6	1	3.52	152	2.35	active
5	TRAF6	2	1.33	108	1.02	inactive
6	TRAF6	3	1.04	103	0.638	inactive
7	CRIP2	1	-0.453	72.9	-0.137	inactive
8	CRIP2	2	-0.381	74.3	-0.34	inactive
9	CRIP2	3	-0.378	74.4	-0.924	inactive
10	ATP6V1A	1	-1.11	59.9	-1.07	inactive
11	ATP6V1A	2	-0.296	76	-0.82	inactive
12	ATP6V1A	3	-0.173	78.4	-0.736	inactive
13	COA5	1	0.0429	82.7	-0.206	inactive
14	COA5	2	-1.01	61.7	-0.423	inactive
15	COA5	3	1.15	105	0.93	inactive
16	TBC1D27P	1	-0.477	72.4	-0.641	inactive
17	TBC1D27P	2	3.96	161	3.59	active
18	TBC1D27P	3	-2.6	30.1	-2.38	inactive
19	MOG	1	0.242	86.7	0.536	inactive
20	MOG	2	0.677	95.4	0.445	inactive
21	MOG	3	-1.87	44.7	-1.02	inactive

Active calls, of those listed so far:
target gene	reagent no.	total luciferase, z-score	total luciferase, % of control	luciferase per cell, z-score	call
TRAF6	1	3.52	152	2.35	active
TBC1D27P	2	3.96	161	3.59	active

Continued:
no.	target gene	reagent no.	total luciferase, z-score	total luciferase, % of control	luciferase per cell, z-score	call
22	NHSL2	1	-0.371	74.5	-0.0703	inactive
23	NHSL2	2	2.3	128	2.33	inactive
24	NHSL2	3	-0.668	68.6	-0.113	inactive
25	NHSL2	4	-2.19	38.4	-1.65	inactive
26	NHSL2	5	0.0667	83.2	0.993	inactive
27	NHSL2	6	-0.329	75.3	-0.134	inactive
28	MIDN	1	-0.806	65.9	-0.732	inactive
29	MIDN	2	0.245	86.8	1.26	inactive
30	MIDN	3	0.192	85.7	-0.278	inactive
31	WSCD1	1	1.02	102	0.793	inactive
32	WSCD1	2	-1.74	47.2	-1.98	inactive
33	WSCD1	3	0.118	84.2	1.47	inactive
34	HELZ	1	0.482	91.5	0.0237	inactive
35	HELZ	2	-0.529	71.4	-0.817	inactive
36	HELZ	3	-0.0156	81.6	0.435	inactive
37	MTRFR	1	-0.0758	80.4	0.79	inactive
38	MTRFR	2	0.619	94.2	1.07	inactive
39	MTRFR	3	0.0176	82.2	-0.402	inactive
